From the supplement of paper PMC12067093, “Discovery and optimisation of a covalent ligand for TRIM25 and its application to targeted protein ubiquitination” (Chemical Science, 2025)
The other results are listed elsewhere or left out.

By UniProt entry, the sequences of proteins in these tests, tags left out. Where a name states a change or a piece, a line headed by the entry shows the natural chain unless it says otherwise.
UniProt P13489: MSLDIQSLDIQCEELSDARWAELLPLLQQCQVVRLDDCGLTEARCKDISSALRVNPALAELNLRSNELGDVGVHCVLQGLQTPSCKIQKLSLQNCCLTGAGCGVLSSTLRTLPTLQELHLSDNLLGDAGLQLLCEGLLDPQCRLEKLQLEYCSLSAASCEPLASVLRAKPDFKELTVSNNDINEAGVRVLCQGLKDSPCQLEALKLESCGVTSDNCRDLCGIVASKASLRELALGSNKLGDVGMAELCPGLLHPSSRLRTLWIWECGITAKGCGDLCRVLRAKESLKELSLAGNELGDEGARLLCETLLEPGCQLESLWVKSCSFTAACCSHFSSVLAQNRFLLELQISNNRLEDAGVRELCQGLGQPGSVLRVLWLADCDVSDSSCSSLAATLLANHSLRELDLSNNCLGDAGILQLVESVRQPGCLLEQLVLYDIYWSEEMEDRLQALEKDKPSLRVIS
UniProt Q9H7B2: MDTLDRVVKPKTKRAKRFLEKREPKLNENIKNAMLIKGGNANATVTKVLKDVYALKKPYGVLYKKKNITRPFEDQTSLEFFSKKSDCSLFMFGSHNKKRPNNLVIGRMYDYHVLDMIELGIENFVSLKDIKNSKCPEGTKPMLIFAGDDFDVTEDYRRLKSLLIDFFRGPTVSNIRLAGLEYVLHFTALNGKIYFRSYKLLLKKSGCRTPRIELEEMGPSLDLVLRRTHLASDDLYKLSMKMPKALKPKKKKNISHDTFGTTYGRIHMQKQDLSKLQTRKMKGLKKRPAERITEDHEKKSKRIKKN
UniProt Q9H4P4: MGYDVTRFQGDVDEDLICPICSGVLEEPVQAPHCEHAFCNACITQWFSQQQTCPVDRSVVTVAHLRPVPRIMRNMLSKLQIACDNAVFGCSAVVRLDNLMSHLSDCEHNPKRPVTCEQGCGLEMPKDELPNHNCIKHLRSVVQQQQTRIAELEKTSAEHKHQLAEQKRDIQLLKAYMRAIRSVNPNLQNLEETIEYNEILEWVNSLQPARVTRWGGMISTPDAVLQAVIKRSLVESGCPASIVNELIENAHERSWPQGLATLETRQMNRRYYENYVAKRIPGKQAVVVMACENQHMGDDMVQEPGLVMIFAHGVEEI
UniProt Q9H4A4: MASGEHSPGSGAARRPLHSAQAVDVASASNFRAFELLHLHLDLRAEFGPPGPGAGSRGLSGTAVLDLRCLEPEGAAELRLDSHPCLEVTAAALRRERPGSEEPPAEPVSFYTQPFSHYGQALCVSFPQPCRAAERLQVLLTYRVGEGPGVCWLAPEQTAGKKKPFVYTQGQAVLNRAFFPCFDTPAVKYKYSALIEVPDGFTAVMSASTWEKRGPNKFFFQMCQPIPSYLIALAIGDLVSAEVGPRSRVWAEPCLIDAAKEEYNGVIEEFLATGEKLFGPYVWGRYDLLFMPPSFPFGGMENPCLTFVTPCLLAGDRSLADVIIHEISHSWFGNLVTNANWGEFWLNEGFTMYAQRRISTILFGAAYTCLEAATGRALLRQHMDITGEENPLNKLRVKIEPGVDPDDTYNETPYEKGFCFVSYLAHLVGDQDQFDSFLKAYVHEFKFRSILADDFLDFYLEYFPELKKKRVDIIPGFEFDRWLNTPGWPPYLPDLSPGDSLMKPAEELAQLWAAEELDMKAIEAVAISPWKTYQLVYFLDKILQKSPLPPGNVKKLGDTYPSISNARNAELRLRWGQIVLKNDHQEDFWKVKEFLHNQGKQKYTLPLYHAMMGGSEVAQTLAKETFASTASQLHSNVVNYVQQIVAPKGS
UniProt Q5W0B1: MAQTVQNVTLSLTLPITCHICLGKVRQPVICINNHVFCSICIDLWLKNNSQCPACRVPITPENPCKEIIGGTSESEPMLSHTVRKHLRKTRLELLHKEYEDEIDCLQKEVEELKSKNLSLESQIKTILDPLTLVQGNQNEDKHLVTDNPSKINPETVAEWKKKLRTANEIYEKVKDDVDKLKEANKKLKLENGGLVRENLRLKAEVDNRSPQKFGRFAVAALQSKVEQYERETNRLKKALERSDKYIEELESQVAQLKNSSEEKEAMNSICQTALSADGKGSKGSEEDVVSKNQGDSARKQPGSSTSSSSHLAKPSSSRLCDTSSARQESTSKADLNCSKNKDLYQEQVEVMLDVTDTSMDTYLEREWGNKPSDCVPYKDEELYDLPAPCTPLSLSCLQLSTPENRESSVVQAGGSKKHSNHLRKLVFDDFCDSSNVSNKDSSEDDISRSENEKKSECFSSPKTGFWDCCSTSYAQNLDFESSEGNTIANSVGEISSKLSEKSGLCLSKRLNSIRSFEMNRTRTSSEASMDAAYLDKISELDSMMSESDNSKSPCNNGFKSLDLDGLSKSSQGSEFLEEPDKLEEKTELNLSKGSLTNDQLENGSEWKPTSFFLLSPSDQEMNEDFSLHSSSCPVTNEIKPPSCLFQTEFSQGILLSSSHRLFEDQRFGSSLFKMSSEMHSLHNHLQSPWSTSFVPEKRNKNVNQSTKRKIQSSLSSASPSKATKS
UniProt Q96EP0: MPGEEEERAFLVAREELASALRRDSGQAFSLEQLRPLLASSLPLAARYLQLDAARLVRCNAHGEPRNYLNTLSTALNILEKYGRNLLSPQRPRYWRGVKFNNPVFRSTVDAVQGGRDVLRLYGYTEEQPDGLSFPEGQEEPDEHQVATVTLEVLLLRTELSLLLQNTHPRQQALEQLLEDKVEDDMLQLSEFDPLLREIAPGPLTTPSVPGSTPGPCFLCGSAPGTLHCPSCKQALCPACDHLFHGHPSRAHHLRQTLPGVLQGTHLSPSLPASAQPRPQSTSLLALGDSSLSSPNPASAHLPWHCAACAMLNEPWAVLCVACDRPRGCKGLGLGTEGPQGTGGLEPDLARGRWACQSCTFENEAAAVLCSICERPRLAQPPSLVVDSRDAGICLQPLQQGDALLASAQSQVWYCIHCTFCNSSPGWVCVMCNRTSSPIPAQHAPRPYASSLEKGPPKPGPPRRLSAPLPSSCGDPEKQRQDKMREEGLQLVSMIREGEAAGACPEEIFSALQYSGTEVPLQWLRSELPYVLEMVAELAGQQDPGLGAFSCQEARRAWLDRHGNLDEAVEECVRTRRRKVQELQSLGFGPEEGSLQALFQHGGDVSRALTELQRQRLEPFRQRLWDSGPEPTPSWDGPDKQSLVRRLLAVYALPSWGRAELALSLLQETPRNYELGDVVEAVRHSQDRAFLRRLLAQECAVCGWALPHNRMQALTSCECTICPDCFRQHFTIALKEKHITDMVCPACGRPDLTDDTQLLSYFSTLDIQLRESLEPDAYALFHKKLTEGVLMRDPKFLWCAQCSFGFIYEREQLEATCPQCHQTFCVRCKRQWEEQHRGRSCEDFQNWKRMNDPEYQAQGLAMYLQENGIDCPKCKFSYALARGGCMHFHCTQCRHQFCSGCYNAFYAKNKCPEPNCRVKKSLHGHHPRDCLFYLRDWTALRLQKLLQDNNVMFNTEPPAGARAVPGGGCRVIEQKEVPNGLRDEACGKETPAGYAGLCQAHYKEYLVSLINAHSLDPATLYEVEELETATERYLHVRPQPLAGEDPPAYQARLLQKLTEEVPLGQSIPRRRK

Compound: CC1Cc2ccccc2N1C(=O)C1CCCN(C1)C(=O)CCl (mixture of isomers) [TRIM25 ligand 11 (diastereomer mixture)]
Experiment: probe-labelled cysteine peptide fold change vs DMSO (competition) (log2 fold change); higher = less target engagement (more negative = stronger competition)
Conditions: THP-1, incubation time: 4 h
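Note: competitive chemoproteomic profiling in live THP-1 cells with an iodoacetamide desthiobiotin (IA-DTB) probe, comparing probe-labelled peptide intensities in compound-treated cells against DMSO-treated controls.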

Target	probe-labelled cysteine peptide fold change (10 µM)	probe-labelled cysteine peptide fold change (50 µM)
RPL37_P61927_19_THTLCR (UniProt P61927)	-0.00787	0.0101
RNH1_P13489_277_GCGDLCR (UniProt P13489)	-0.238	0.335
RPF2_Q9H7B2_87_SDCSLFMFGSHNK (UniProt Q9H7B2)	-0.113	-0.108
RPL11_P62913_21_KLCLNICVGESGDR (UniProt P62913)	-0.165	-0.013
RPL24_P83731_36_CESAFLSK (UniProt P83731)	-0.109	-0.0509
RNF41_Q9H4P4_106_LDNLMSHLSDCEHNPK (UniProt Q9H4P4)	-0.0596	-0.245
RNPEP_Q9H4A4_85_LDSHPCLEVTAAALRR (UniProt Q9H4A4)	-0.216	-0.185
RNF219_Q5W0B1_52_NNSQCPACR (UniProt Q5W0B1)	0.00308	0.135
RNF219_Q5W0B1_105_EYEDEIDCLQK (UniProt Q5W0B1)	0.0688	0.0321
RNH1_P13489_96_LSLQNCCLTGAGCGVLSSTLR (UniProt P13489)	-0.0454	0.0308
RNF213_Q63HN8_3979_TLCECK (UniProt Q63HN8)	-0.0721	0.0197
RNF31_Q96EP0_898+901_HQFCSGCYNAFYAK (UniProt Q96EP0)	-0.0188	-0.0395
RNF31_Q96EP0_59_CNAHGEPR (UniProt Q96EP0)	-0.0101	0.229
RPL10A_P62906_66+74_FSVCVLGDQQHCDEAK (UniProt P62906)	-0.151	-0.327
RPL32_P62910_91_ELEVLLMCNK (UniProt P62910)	-0.173	-0.0552
